The values below come from PMC2680976.

Amino acid sequences for entries named in this document (tags omitted). A change or cut given only in a name is not applied to a line headed by its entry. Chains listed by the source or under a name are the forms on record and can include a tag or linker. Residues count along the entry.
UniProt P43119: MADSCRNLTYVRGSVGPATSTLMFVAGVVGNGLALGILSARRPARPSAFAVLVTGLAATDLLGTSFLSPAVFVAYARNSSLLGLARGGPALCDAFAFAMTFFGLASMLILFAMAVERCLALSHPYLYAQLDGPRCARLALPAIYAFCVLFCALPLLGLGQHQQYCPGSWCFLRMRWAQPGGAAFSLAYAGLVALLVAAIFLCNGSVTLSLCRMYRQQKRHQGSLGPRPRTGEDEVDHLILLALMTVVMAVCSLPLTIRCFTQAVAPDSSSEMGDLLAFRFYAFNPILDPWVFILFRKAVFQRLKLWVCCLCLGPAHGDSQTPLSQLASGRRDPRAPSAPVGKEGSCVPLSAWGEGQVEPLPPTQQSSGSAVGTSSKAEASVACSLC
hIP^Δ312, HA-tagged truncation of the human prostacyclin receptor: residues 1-311 of P43119
hIP^Δ307, HA-tagged truncation of the human prostacyclin receptor: residues 1-306 of P43119
UniProt P20339: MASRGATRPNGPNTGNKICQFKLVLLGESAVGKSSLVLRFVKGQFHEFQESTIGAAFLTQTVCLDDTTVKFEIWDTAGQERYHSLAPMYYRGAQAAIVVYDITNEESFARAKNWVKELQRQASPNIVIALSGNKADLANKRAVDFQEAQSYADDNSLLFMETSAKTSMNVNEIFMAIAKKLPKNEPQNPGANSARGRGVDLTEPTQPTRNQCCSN

Assay [1] concerns the target human prostacyclin receptor (hIP), HA-tagged, wild type (human) (UniProt P43119). As to the kind of experiment: co-IP; data not shown: anti-HA immunoprecipitates of HEK.hIP cells transfected with GFP-Rab5a, vehicle or 1 μM cicaprost; blot with anti-GFP.
Assay [2] has the same target. Nature of the assay: co-IP; HEK 293 cells stably expressing HA-tagged hIP, hIP^Δ312 or hIP^Δ307, transfected with GFP-Rab5a forms; vehicle or 1 μM cicaprost 2 h at 37 °C; lysis in RIP buffer; immunoprecipitation with anti-HA 101R and protein G Sepharose; blot with anti-Rab5.
Assay [3] deals with hIP^Δ312, HA-tagged truncation of the human prostacyclin receptor (human) (UniProt P43119). Described as above.
Assay [4] has as its target hIP^Δ307, HA-tagged truncation of the human prostacyclin receptor (human) (UniProt P43119). The assay is described as above.

These are yes or no findings as the source states them, for the method shown. In cells and extracts the contact can be indirect. Some binding calls cover weakened binding; strength is not graded here.

Take “GFP-tagged Rab5a, wild type (from UniProt P20339 1-215)”: the binding result in assay [1], in assay [2], in assay [3] and in assay [4] was “binds” in each case.

As for “GFP-tagged Rab5a^Q79L (constitutively active, GTPase defective) (from UniProt P20339 1-215)”, the binding entry in assay [2] is reported as “binds”.

Turning to “GFP-tagged Rab5a^S34N (dominant negative, GTP-binding defective) (from UniProt P20339 1-215)”, in assay [2], the binding entry was “binds”.
